Measured values as given in the supplement of paper PMC4635364.
Structures can show the parent of a compound that is named as a salt. The list shows a part of the results. Single values are uncertain here, since repeats match poorly.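 Human fetal ventral-midbrain neural progenitor line ReNCell VM, differentiated without mitogens. Images stained for doublecortin (early neurons) or tyrosine hydroxylase (dopaminergic neurons) were scored by blinded raters against untreated wells (0 = no change). Repeats and both raters were averaged, and compounds averaging 2 or higher were picked as hits for retesting.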

System: ReNCell VM
Experiment: neuronal differentiation score (DCX+ cell fraction vs untreated, manual image score) (score (-3 to 3)); higher = more neuronal differentiation
Settings: library: LOPAC; 2 uM; 2 weeks

Row | SMILES | neuronal differentiation score
1 | N#C/C(=C\c1c[nH]c2ccccc12)C(=O)c1ccc(O)c(O)c1 [Tyrphostin AG 808] | inactive: 0
2 | Fc1ccc(CN(C2=NCCN2)c2c(Cl)cccc2Cl)cc1 [IMID-4F hydrochloride] | inactive: 0
3 | C[C@H](CCC(=O)NCCS(=O)(=O)O)[C@H]1CC[C@H]2[C@@H]3[C@H](O)C[C@@H]4C[C@H](O)CC[C@]4(C)[C@H]3C[C@H](O)[C@]12C [Sodium Taurocholate hydrate] | inactive: 1

Same assay, conditions: library: Prestwick; 2 uM; 2 weeks

Row | SMILES | neuronal differentiation score
4 | CCOC(=O)[C@H](CCc1ccccc1)N[C@@H](C)C(=O)N1[C@H](C(=O)O)C[C@@H]2CCC[C@@H]21 [Ramipril] | inactive: 0
5 | CC1CS(=O)(=O)CCN1/N=C/c1ccc([N+](=O)[O-])o1 (stereo unspecified) [Nifurtimox] | inactive: 0
6 | CCn1cc(C(=O)O)c(=O)c2cnc(N3CCNCC3)nc21 [Pipemidic acid] | inactive: 0
7 | O=C(O)CNC(=O)C(CS)Cc1ccccc1 (stereo unspecified) [Thiorphan] | inactive: 0
8 | CC1Cc2ccccc2N1NC(=O)c1ccc(Cl)c(S(N)(=O)=O)c1 (stereo unspecified) [Indapamide] | inactive: 0
9 | CCOc1ccc2c(c1)C(C)=CC(C)(C)N2 [Ethoxyquin] | inactive: 0
10 | C[C@]12CC[C@@H]3c4ccc(O)cc4CC[C@H]3[C@@H]1CC[C@@H]2O [Estradiol-17 beta] | inactive: 0

Reprinted at random: 2 records from the list.
Row | SMILES | neuronal differentiation score
9 | CCOc1ccc2c(c1)C(C)=CC(C)(C)N2 [Ethoxyquin] | inactive: 0
8 | CC1Cc2ccccc2N1NC(=O)c1ccc(Cl)c(S(N)(=O)=O)c1 (stereo unspecified) [Indapamide] | inactive: 0

Same assay, conditions: library: Spectrum; 2 uM; 2 weeks

Row | SMILES | neuronal differentiation score
11 | COc1cc(/C=C/C(=O)N2CCC=CC2=O)cc(OC)c1OC | inactive: 0
12 | C=C(C)[C@H]1CC=C(C)CC1 | inactive: 0
13 | CCN(CC)CCNC(=O)c1cc(S(C)(=O)=O)ccc1OC | inactive: 0
14 | COc1cc(C)c(C(=O)Oc2cc(C)c(C(=O)O)c(O)c2C)c(OC)c1C | inactive: 0
15 | CN(C)CCC=C1c2ccccc2C=Cc2ccccc21 | inactive: 0
16 | Cc1c(NC(C)C)c(=O)n(-c2ccccc2)n1C | inactive: 0
17 | CN(C)CCN(Cc1ccc(Cl)cc1)c1ccccn1 | inactive: 0
18 | Cc1nnc(NS(=O)(=O)c2ccc(N)cc2)s1 | inactive: 0
19 | Cn1c(=O)c2nc[nH]c2n(C)c1=O | inactive: -1
20 | COc1ccc(CN(CCN(C)C)c2ncccn2)cc1 | inactive: 0
21 | OCCN1CCN(CCCN2c3ccccc3Sc3ccc(C(F)(F)F)cc32)CC1 | inactive: 1
22 | COc1cc2ccc(=O)oc2cc1O | inactive: 0
23 | C=C(C)[C@H]1COc2cc3oc(=O)ccc3cc2O1 | inactive: 0
24 | CCOC(=O)c1c(C)cc(O)c(C=O)c1O | inactive: 0
25 | CC1CC(OC(=O)C(O)c2ccccc2)CC(C)(C)C1 (stereo unspecified) | inactive: 0
26 | C=COCC(F)(F)F | inactive: 0
27 | Nc1nc(F)nc2c1ncn2[C@@H]1O[C@H](COP(=O)(O)O)[C@@H](O)[C@@H]1O | inactive: 0
28 | N=C(N)NC(=N)NCCc1ccccc1 | inactive: 0
29 | COc1cccc2c1C(=O)c1c(O)c3c(c(O)c1C2=O)C[C@@](O)(C(=O)CO)C[C@@H]3O[C@H]1C[C@H](N)[C@H](O)[C@H](C)O1 | inactive: 0
30 | Nc1ccc(S(=O)(=O)Nc2ccc(Cl)nn2)cc1 | inactive: 0
31 | O=S(=O)(O)c1cc(I)c(O)c2ncccc12 | inactive: 0

Same assay, conditions: library: Tocriscreen; 2 uM; 2 weeks

Row | SMILES | neuronal differentiation score
32 | CCN(CC)CCCCN1c2ccccc2Oc2ccc(Cl)cc21 [10-DEBC hydrochloride] | inactive: 0
33 | NC(=O)CCCCn1ccc(NC(N)=NCC(F)(F)F)n1 | inactive: 0
34 | Clc1ccc(-c2nc3sccn3c2/C=N/OCc2ccc(Cl)c(Cl)c2)cc1 | inactive: 0
35 | CS(=O)(=O)c1ccc(-c2cc(Br)sc2-c2ccc(F)cc2)cc1 | inactive: 0
36 | CCn1c(=O)[nH]c2ccccc21 | inactive: 0

System: ReNCell VM
Experiment: dopaminergic neuron differentiation score (TH+ cell fraction vs untreated, manual image score) (score (0 to 3)); higher = more TH+ dopaminergic neuron differentiation
Settings: library: LOPAC; 2 uM; 4 weeks; BDNF 10 ng/ml + GDNF 10 ng/ml

Row | SMILES | dopaminergic neuron differentiation score
37 | N#C/C(=C\c1c[nH]c2ccccc12)C(=O)c1ccc(O)c(O)c1 [Tyrphostin AG 808] | inactive: 0
38 | Fc1ccc(CN(C2=NCCN2)c2c(Cl)cccc2Cl)cc1 [IMID-4F hydrochloride] | inactive: 0
39 | C[C@H](CCC(=O)NCCS(=O)(=O)O)[C@H]1CC[C@H]2[C@@H]3[C@H](O)C[C@@H]4C[C@H](O)CC[C@]4(C)[C@H]3C[C@H](O)[C@]12C [Sodium Taurocholate hydrate] | inactive: 0

Same assay, conditions: library: Prestwick; 2 uM; 4 weeks; BDNF 10 ng/ml + GDNF 10 ng/ml

Row | SMILES | dopaminergic neuron differentiation score
40 | CCOC(=O)[C@H](CCc1ccccc1)N[C@@H](C)C(=O)N1[C@H](C(=O)O)C[C@@H]2CCC[C@@H]21 [Ramipril] | inactive: 0
41 | CC1CS(=O)(=O)CCN1/N=C/c1ccc([N+](=O)[O-])o1 (stereo unspecified) [Nifurtimox] | inactive: 0
42 | CCn1cc(C(=O)O)c(=O)c2cnc(N3CCNCC3)nc21 [Pipemidic acid] | inactive: 0
43 | O=C(O)CNC(=O)C(CS)Cc1ccccc1 (stereo unspecified) [Thiorphan] | inactive: 0
44 | CC1Cc2ccccc2N1NC(=O)c1ccc(Cl)c(S(N)(=O)=O)c1 (stereo unspecified) [Indapamide] | inactive: 0
45 | CCOc1ccc2c(c1)C(C)=CC(C)(C)N2 [Ethoxyquin] | inactive: 1
46 | C[C@]12CC[C@@H]3c4ccc(O)cc4CC[C@H]3[C@@H]1CC[C@@H]2O [Estradiol-17 beta] | inactive: 0
